Reference: PubChem BioAssay AID1259254 (NCATS, 2017)

Assay: 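Finding genes that stop cells copying their DNA twice in one cycle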 (primary screen)
Cell system: human HCT116 colorectal cancer cells
Reagent: single siRNA against human genes
Duration: 3 days
Detection: 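Nuclei stained with Hoechst and imaged; cell-cycle phase assigned by DNA content; G2 share scaled per plate, non-targeting siRNA 0%, GMNN siRNA 100%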
Direction: G2 robust z-score: higher = more G2 cells, more excess DNA replication
Call rule: 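An siRNA counts as active if its G2 robust z-score lies at least 5 MADs above the screen median; here such calls match roughly 38% of GMNN control or more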
Here is an unselected part of about 59,000 reagents tested. About 1,550 of all reagents (2.6%) were called active. 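G2 share is only a proxy for re-replication; each gene was hit by three separate siRNAs, and active genes were retested.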 Reagents against one gene are numbered here. Not all columns of the deposit are shown. Not stated in the record: the amount of reagent.

Knock-down of LLGL1 #1 came out at: G2 robust z-score -0.888; inactive.
Knock-down of LLGL1 #2 came out at: G2 robust z-score -0.195; inactive.
With knock-down of LLGL1 #3 the results were G2 robust z-score -0.271; inactive.
After knock-down of SHLD1 #1 the results were G2 robust z-score 1.55; inactive.
After knock-down of SHLD1 #2, the screen gave G2 robust z-score -0.495; inactive.
SHLD1 #3 showed G2 robust z-score 0.958; inactive.

2 consecutive entries from above:
LLGL1 #1: G2 robust z-score = -0.888; call = inactive
LLGL1 #2: G2 robust z-score = -0.195; call = inactive

The listing continues:
With knock-down of GLRX5 #1 the results were G2 robust z-score -0.591; inactive.
After knock-down of GLRX5 #2, the screen gave G2 robust z-score -0.0869; inactive.
With knock-down of GLRX5 #3, the screen gave G2 robust z-score 1.05; inactive.
With knock-down of MX1 #1 the results were G2 robust z-score 0.282; inactive.
Against MX1 #2 the deposit lists G2 robust z-score 1.18; inactive.
For MX1 #3 the deposit lists G2 robust z-score -0.62; inactive.
